{"source": "PubChem BioAssay AID652248 – Drosophila RNAi Screening Center | 2013", "screen": "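Kinases and phosphatases whose loss pushes fly blood cells toward elongated shapes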 (primary screen)", "cell system": "cultured Drosophila hemocytes", "reagent": "long dsRNA against Drosophila genes", "read-out": "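Automated microscopy of stained actin, tubulin and nuclei; single-cell shape measures assigned to five reference shape types, giving a score per dsRNA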", "reading the numbers": "elongated score: higher = more elongated bipolar cells", "active means": "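Hits show a significant increase of elongated cells; higher rank given where elongated cells rose as other shape types fell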", "note": "The deposit covers 863 reagents; shown is an unselected part. 32 of them (3.7%) were called active. 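Calls also used reproducibility and a similarity ranking whose scores are not deposited; many active genes show only modest elongated scores.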 Unmarked entries are inactive. Not all columns of the deposit are shown. Not given: the amount of reagent, the time to read-out."}
{"Gene": "CG3632", "PubChem SID": "SID104199663", "elongated score, rep 1": 1.68}
{"Gene": "Pdk1", "PubChem SID": "SID104188474", "elongated score, rep 1": -0.23}
{"Gene": "Pdk1", "PubChem SID": "SID104205613", "elongated score, rep 1": 3.15}
{"Gene": "Ssl", "PubChem SID": "SID104184449", "elongated score, rep 1": -0.53}
{"Gene": "Ssl", "PubChem SID": "SID104204820", "elongated score, rep 1": -0.41}
{"Gene": "CG8173", "PubChem SID": "SID104199880", "elongated score, rep 1": 0.76}
{"Gene": "Ptp61F", "PubChem SID": "SID104188475", "elongated score, rep 1": -0.53}
{"Gene": "Ptp61F", "PubChem SID": "SID104207263", "elongated score, rep 1": -0.38}
{"Gene": "14-3-3zeta", "PubChem SID": "SID104184820", "elongated score, rep 1": "0.65 (active)"}
{"Gene": "14-3-3zeta", "PubChem SID": "SID104206069", "elongated score, rep 1": "4.43 (active)"}
{"Gene": "Dsor1", "PubChem SID": "SID104198254", "elongated score, rep 1": 1.67}
{"Gene": "Dsor1", "PubChem SID": "SID104206091", "elongated score, rep 1": 3.02}
{"Gene": "CG2577", "PubChem SID": "SID104199655", "elongated score, rep 1": -0.53}
{"Gene": "CG2577", "PubChem SID": "SID104202666", "elongated score, rep 1": -0.53}
{"Gene": "CG2577", "PubChem SID": "SID104204866", "elongated score, rep 1": -0.13}

Reagents above called active:
{"Gene": "14-3-3zeta", "PubChem SID": "SID104184820", "elongated score, rep 1": "0.65 (active)"}
{"Gene": "14-3-3zeta", "PubChem SID": "SID104206069", "elongated score, rep 1": "4.43 (active)"}

More reagents:
{"Gene": "Nrk", "PubChem SID": "SID104187272", "elongated score, rep 1": -0.53}
{"Gene": "Spred", "PubChem SID": "SID104185768", "elongated score, rep 1": 5.53}
{"Gene": "Spred", "PubChem SID": "SID104206019", "elongated score, rep 1": 1.63}
{"Gene": "wnd", "PubChem SID": "SID104189418", "elongated score, rep 1": -0.53}
{"Gene": "wnd", "PubChem SID": "SID104190838", "elongated score, rep 1": 0.59}
{"Gene": "wnd", "PubChem SID": "SID104201144", "elongated score, rep 1": 0.06}
{"Gene": "Alp6", "PubChem SID": "SID104186502", "elongated score, rep 1": -0.53}
{"Gene": "mts", "PubChem SID": "SID104183366", "elongated score, rep 1": 0.34}
{"Gene": "Alp11", "PubChem SID": "SID104199872", "elongated score, rep 1": -0.53}
{"Gene": "CG42327", "PubChem SID": "SID104194729", "elongated score, rep 1": -0.53}
{"Gene": "CG42327", "PubChem SID": "SID104202694", "elongated score, rep 1": -0.22}
{"Gene": "CG42327", "PubChem SID": "SID104206792", "elongated score, rep 1": 0.21}
{"Gene": "Pka-C2", "PubChem SID": "SID104196582", "elongated score, rep 1": -0.41}
{"Gene": "Pka-C2", "PubChem SID": "SID104202667", "elongated score, rep 1": -0.53}
{"Gene": "Pka-C2", "PubChem SID": "SID104207620", "elongated score, rep 1": 2.25}
{"Gene": "CG7497", "PubChem SID": "SID104190649", "elongated score, rep 1": 0.93}
{"Gene": "CG7497", "PubChem SID": "SID104206732", "elongated score, rep 1": 0.73}
{"Gene": "rdgA", "PubChem SID": "SID104198619", "elongated score, rep 1": -0.53}
{"Gene": "rdgA", "PubChem SID": "SID104205736", "elongated score, rep 1": -0.53}
{"Gene": "CG8298", "PubChem SID": "SID104186930", "elongated score, rep 1": -0.53}
